What all share (experiment): odorant receptor activation (CRE luciferase / Renilla) (fold of no-odor wells); higher = more activation
Common to all, as to conditions: 100 µM

Chains of the proteins cited; added tags and fusions are not shown. Chains listed by the source or under a name are the forms on record and can include a tag or linker.
OR11H13, as listed by the source: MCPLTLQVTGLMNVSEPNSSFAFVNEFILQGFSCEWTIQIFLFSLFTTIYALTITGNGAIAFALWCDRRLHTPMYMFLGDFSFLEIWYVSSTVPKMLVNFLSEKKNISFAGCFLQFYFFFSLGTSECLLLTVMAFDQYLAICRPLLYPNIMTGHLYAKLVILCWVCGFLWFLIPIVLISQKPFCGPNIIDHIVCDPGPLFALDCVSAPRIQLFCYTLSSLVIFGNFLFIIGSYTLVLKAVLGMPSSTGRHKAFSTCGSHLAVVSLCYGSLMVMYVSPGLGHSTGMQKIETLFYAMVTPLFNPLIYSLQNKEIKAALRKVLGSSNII

Experiment [1] concerns OR10R2 clone 1400.
In experiment [2] the test system is OR10T2 clone 1032.
Experiment [3] concerns OR10V1 Q101L/V117A/Q123W clone 1520.
Experiment [4] has as its system OR10W1 R263Q clone 1176.
Experiment [5] deals with OR10X1 clone 1368.
In experiment [6] the test system is OR10X1 clone 1516.
Experiment [7] concerns OR10Z1 clone 1026.
The test system of experiment [8] is OR11A1 clone 1062.
The test system of experiment [9] is OR11H1 clone 1558.
Experiment [10] relates to OR11H12 clone 1302.
In experiment [11] the test system is OR11H13 clone 1435.
Experiment [12] relates to OR11H4 clone 1263.
The test system of experiment [13] is OR11H4 clone 1423.
Experiment [14] has as its system OR11H6 clone 1275.
The test system of experiment [15] is OR11L1 G108S/F117L/A142T/R171P clone 1031.
Experiment [16] concerns OR12D2 V47F/L56P/S104F/F113L/L120R/V159I clone 1373.
Experiment [17] relates to OR12D2 clone 1075.
Experiment [18] has as its system OR12D3 clone 1071.
For experiment [19], the system named is OR13A1 clone 1107.
The subject of experiment [20] is OR13C2 clone 1717.

The structures appear in SMILES notation. Where “and” joins values, the source holds several entries; their conditions need not be identical. Equal entries are not always repeated. The list shows a part of the results. Each value is one well over the wells without odorant, computed here; the data are noisy.

The text below walks through data of the odorant receptor screen of Mainland et al. (2015).

With `c1ccc(Oc2ccccc2)cc1` [diphenyl ether], the odorant receptor activation in [1] turned out to be 1.08; in experiment [2] it was 0.929; in experiment [3], 1.11; in experiment [4] it was 0.943; in experiment [5] it was 0.955; in experiment [6], 1.34. In addition, the odorant receptor activation in experiment [7] came out at 0.842; in experiment [8] it was 1.1; in experiment [9], 0.695; in experiment [10] it was 1.27; in [11] it was 1.09; in experiment [12] it was 0.88. Besides, the odorant receptor activation was determined as 1.04 in [13]; 1.09 in [14]; 1.01 in experiment [15]; 0.93 in experiment [16]; 1.05 in experiment [17]; 0.873 in experiment [18]. Also, the odorant receptor activation was 0.909 in experiment [19] and 0.956 in [20].
Turning to `CC=Cc1ccc(O)c(OC)c1` [isoeugenol], the odorant receptor activation was 1.53 in [1]; 1.89 in experiment [2]; 0.972 and 2.71 in experiment [3]; 1.7 in experiment [4]; 1.58 in [5]; 1.2 and 2 in experiment [6]. The odorant receptor activation in experiment [7] is 1.55; in experiment [8], 0.901; in experiment [9], 0.644; in experiment [10], 1.18 and 1.21; in experiment [11], 1.33; in experiment [12] it was 1.18 and 1.12. The odorant receptor activation in experiment [13] is 1.82; in experiment [14], 0.996 and 1.55; in experiment [15] it was 1.41; in [16] it was 1.48; in experiment [17], 1.05; in [18], 1.2. Besides, the results for the odorant receptor activation in experiment [19] and in experiment [20] were 2.02 and 4.39, respectively.
Regarding `CC12C=CCC1C1CCC3CC(=O)CCC3(C)C1CC2` (centres undefined) [androstenone], the odorant receptor activation in experiment [1] amounted to 0.532; in experiment [2], 2.13; in [3] it was 1.1; in experiment [4], 6.04; in experiment [5] it was 0.799; in [6], 1.19. Moreover, the odorant receptor activation in experiment [7] worked out at 1.76; in [8] it was 1.92; in [10], 1.26; in [11], 1.42; in [12], 1.26; in experiment [13], 0.893. Also, the odorant receptor activation in experiment [14] was determined as 1.14; in [15], 2.27; in experiment [16] it was 0.209; in experiment [17], 1.27; in [18], 2.06; in experiment [19] it was 8.12.
For the compound `CCCCCCCOC(C)=O` [heptyl acetate], the odorant receptor activation in experiment [1] is 0.89; in experiment [2], 1.01; in experiment [3] it was 0.841 and 1.08; in experiment [4], 0.985; in experiment [5], 1.23; in experiment [6], 1.17 and 1.24. In addition, the odorant receptor activation is 0.994 in [7]; 1.33 in experiment [8]; 0.84 in [9]; 1.06 and 0.821 in [10]; 0.774 in experiment [11]; 0.956 and 1.09 in [12]. Moreover, the odorant receptor activation in experiment [13] was 1.3; in experiment [14], 0.733 and 1.02; in [15] it was 0.721; in experiment [16], 0.944; in experiment [17], 1.24; in experiment [18], 0.617. For the same compound, the figures for the odorant receptor activation in experiment [19] and in experiment [20] were 1.55 and 0.998, respectively.
In the case of `CCCCCCCCCCC=O` [undecanal], the odorant receptor activation in experiment [1] was determined as 0.941; in experiment [2] it was 0.712; in experiment [3], 1.11; in experiment [4], 0.849; in experiment [5], 0.673; in [6] it was 1.16. Also, the odorant receptor activation in [7] was found to be 0.822; in [8], 1.29; in experiment [9], 1.51; in experiment [10], 0.998; in experiment [11], 1.3; in [12], 0.838. Further, the odorant receptor activation in experiment [13] came out at 0.984; in experiment [14] it was 0.962; in experiment [15], 1.1; in [16], 0.946; in experiment [17], 1.35; in [18], 0.912. Moreover, the odorant receptor activation was 0.875 in [19] and 0.796 in [20].
For the compound `C=CCc1ccc(OC)c(OC)c1` [eugenol methyl ether], the odorant receptor activation is 1.68 in [1]; 1.61 in experiment [2]; 2.17 in [3]; 1.55 in experiment [4]; 1.5 in [5]; 1.7 in [6]. The odorant receptor activation came to 1.41 in experiment [7]; 1.46 in experiment [8]; 0.782 in experiment [9]; 1.35 in experiment [10]; 1.33 in experiment [11]; 1.54 in experiment [12]. Further, the odorant receptor activation came out at 1.95 in [13]; 1.52 in experiment [14]; 1.91 in [15]; 1.55 in [16]; 1.38 in experiment [17]; 1.29 in experiment [18]. Also, the odorant receptor activation in experiment [19] was 1.83; in [20] it was 1.05.
As for `CC(C)(O)CCCC1=CCC(C=O)CC1` (centres undefined) [lyral], the values for the odorant receptor activation in experiment [9] and in experiment [20] were 1.14 and 0.655, respectively.
As to `CC1=NC(C)SC1C` (centres undefined), the odorant receptor activation in experiment [1] was 0.819; in experiment [2] it was 0.819; in [3], 0.947 and 1.02; in [4] it was 0.942; in experiment [5], 0.931; in experiment [6] it was 1.19 and 0.972. For the same compound, the odorant receptor activation was found to be 0.659 in [7]; 1.92 in experiment [8]; 1.16 in experiment [10]; 0.977 in [11]; 1.21 in experiment [12]; 1.05 in [13]. Also, the odorant receptor activation stood at 1.1 in experiment [14]; 1.41 in [15]; 0.95 in experiment [16]; 1.03 in [17]; 0.805 in experiment [18]; 0.788 in experiment [19].
Take `C=C(C)C1CCC2=CC(=O)CC(C)C2(C)C1` (centres undefined) [amyl laurate]: the odorant receptor activation was determined as 1.32 in experiment [9] and 1.05 in experiment [20].
For `COC(=O)c1ccccc1` [methyl benzoate], the odorant receptor activation is 0.702 in experiment [1]; 1.55 in [2]; 0.545 and 1.26 in [3]; 1.05 in experiment [4]; 1.13 in [5]; 1.13 and 0.935 in [6]. The odorant receptor activation in experiment [7] came to 1.26; in experiment [8], 0.754; in experiment [10], 0.941; in experiment [11], 0.877; in experiment [12] it was 0.935; in [13], 0.68. Besides, the odorant receptor activation stood at 0.891 in experiment [14]; 1.2 in experiment [15]; 0.894 in experiment [16]; 1.23 in [17]; 0.799 in [18]; 0.689 in experiment [19].
Turning to `CCCCCOC(C)=O` [n-amyl acetate], the odorant receptor activation was 0.746 in experiment [1]; 1.51 in experiment [2]; 0.597 and 0.79 in [3]; 0.568 in experiment [4]; 0.992 in [5]; 1.25 and 0.904 in experiment [6]. Besides, the odorant receptor activation in [7] worked out at 1.02; in [8], 1.1; in experiment [9] it was 1.22; in experiment [10], 0.535; in experiment [11], 0.977; in [12], 0.667. Also, the odorant receptor activation in [13] was determined as 0.805; in [14], 0.878; in [15] it was 1.68; in experiment [16] it was 0.717; in experiment [17], 1.45; in experiment [18], 0.762. In addition, the odorant receptor activation stood at 1.14 in [19] and 1 in [20].
Consider `CCCCCC(C)=O` [2-heptanone], for which the odorant receptor activation was 0.745 in experiment [1]; 1.36 in experiment [2]; 0.707 and 0.568 in [3]; 0.835 in experiment [4]; 1.03 in experiment [5]; 0.957 and 0.572 in [6]. Further, the odorant receptor activation in experiment [7] worked out at 0.835; in experiment [8] it was 0.347; in experiment [10], 0.919; in experiment [11] it was 0.914; in [12], 1.41; in [13] it was 0.724. Further, the odorant receptor activation came to 1.73 in [14]; 0.657 in experiment [15]; 1.06 in [16]; 0.622 in experiment [17]; 0.313 in experiment [18]; 0.542 in experiment [19].
As to `O=CCc1ccccc1` [phenyl acetaldehyde], the odorant receptor activation in experiment [1] is 1.43; in [2], 1.21; in experiment [3], 1.25; in experiment [4] it was 1.06; in experiment [5] it was 1; in experiment [6], 1. Also, the odorant receptor activation in [7] is 0.784; in [8], 1.33; in experiment [9], 1.8; in experiment [10], 1.03; in [11], 1.49; in [12], 1.12. Moreover, the odorant receptor activation in [13] stood at 1.4; in experiment [14] it was 1.13; in [15], 1.08; in experiment [16] it was 1.84; in experiment [17], 1.28; in experiment [18], 1.36. Moreover, the odorant receptor activation was found to be 1.17 in [19] and 1.81 in experiment [20].
`CCCCCCCC=O` [octyl aldehyde]: the odorant receptor activation was determined as 0.845 in experiment [1]; 1.29 in experiment [2]; 0.956 in [3]; 1.23 in experiment [4]; 0.786 in [5]; 0.828 in experiment [6]. Moreover, the odorant receptor activation came to 1.16 in experiment [7]; 1.08 in experiment [8]; 0.953 in experiment [9]; 1.35 in experiment [10]; 0.957 in [11]; 1.05 in experiment [12]. For the same compound, the odorant receptor activation came out at 0.761 in [13]; 1.24 in [14]; 1.25 in [15]; 0.905 in [16]; 1.58 in experiment [17]; 1.33 in [18]. Moreover, the odorant receptor activation amounted to 1.58 in experiment [19] and 0.901 in [20].
Consider `O=C1CCCCC1` [Cyclohexanone], for which the odorant receptor activation in experiment [1] was 0.658; in experiment [2], 0.854; in experiment [3], 0.47 and 0.877; in [4], 0.794; in [5], 0.873; in [6], 1.1 and 1.03. The odorant receptor activation in experiment [7] worked out at 0.834; in [8], 0.498; in experiment [10] it was 0.725; in experiment [11] it was 0.873; in [12], 0.742; in experiment [13] it was 0.852. The odorant receptor activation in [14] was determined as 0.788; in [15] it was 1.29; in experiment [16], 1.08; in [17], 1.55; in [18] it was 0.597; in experiment [19] it was 0.588.
Turning to `CCC1(O)C2(C)CCC(C2)C1(C)C` (centres undefined) [2-ethylfenchol], the odorant receptor activation in experiment [1] was found to be 0.785; in experiment [2] it was 3.15; in [3], 0.953; in [4], 0.888; in [5] it was 0.634; in experiment [6] it was 1.18. Also, the odorant receptor activation turned out to be 3.61 in experiment [7]; 29 in experiment [8]; 1.34 in experiment [9]; 1.04 in [10]; 1.25 in experiment [11]; 0.836 in experiment [12]. Further, the odorant receptor activation is 0.747 in experiment [13]; 0.819 in experiment [14]; 4.71 in experiment [15]; 0.212 in experiment [16]; 2.73 in [17]; 4.82 in experiment [18]. Besides, the odorant receptor activation in experiment [19] is 14.2; in experiment [20], 0.906.
